System: human umbilical vein endothelial cells HUVEC
Assay: In vitro anticancer activities of complexes (Experiment 2)
Type: cell-based
Settings: IC50(HUVEC)/IC50(Hela)
Protocol: The cell lines used in the experiments were obtained from Peking University.
The safety index (SI) was calculated according to the following equation:
^bSafety Index (SI)=IC50(HUVEC)/IC50(Hela)

SMILES | Safety Index (SI)
CC#[N+][Ga-3]123([N+]#CC)[O]c4ccccc4C=[N+]1c1ccccc1[N+]2=Cc1ccccc1[O]3.[Cl-] [Complex 14] | 8.33
CC#[N+][Ga-3]123([N+]#CC)[O]c4cc(N(C)CCCC)ccc4C=[N+]1C(C#N)=C(C#N)[N+]2=Cc1ccc(N(C)CCCC)cc1[O]3.[Cl-] [Complex 13] | 0.16
CC#[N+][Ga-3]123([N+]#CC)[O]c4ccccc4C=[N+]1C(C#N)=C(C#N)[N+]2=Cc1ccccc1[O]3.[Cl-] [Complex 4] | 0.08
CC#[N+][Ga-3]123([N+]#CC)[O]c4cc(N(C)C)ccc4C=[N+]1C(C#N)=C(C#N)[N+]2=Cc1ccc(N(C)C)cc1[O]3.[Cl-] [Complex 6] | 0.64
CC#[N+][Ga-3]123([N+]#CC)[O]c4cc5c(cc4C=[N+]1C(C#N)=C(C#N)[N+]2=Cc1cc2c(cc1[O]3)N(C)CCS2)SCCN5C.[Cl-] [Complex 12] | 1.29
CC#[N+][Ga-3]123([N+]#CC)[O]c4cc(N(CC)CC)ccc4C=[N+]1c1ccccc1[N+]2=Cc1ccc(N(CC)CC)cc1[O]3.[Cl-] [Complex 9] | 0.75
CC#[N+][Ga-3]123([N+]#CC)[O]c4cc(N5CCCC5)ccc4C=[N+]1C(C#N)=C(C#N)[N+]2=Cc1ccc(N2CCCC2)cc1[O]3.[Cl-] [Complex 7] | 0.30
C#CCN(C)c1ccc2c(c1)[O][Ga-3]13([N+]#CC)([N+]#CC)[O]c4cc(N(CC)CC)ccc4C=[N+]1C(C#N)=C(C#N)[N+]3=C2.[Cl-] [Complex 2] | 0.30
CC#[N+][Ga-3]123([N+]#CC)[O]c4c(ccc5c4SCCN5C)C=[N+]1C(C#N)=C(C#N)[N+]2=Cc1ccc2c(c1[O]3)SCCN2C.[Cl-] [Complex 10] | 3.79
CC#[N+][Ga-3]123([N+]#CC)[O]c4cc(N(CC)CC)ccc4C=[N+]1c1ccncc1[N+]2=Cc1ccc(N(CC)CC)cc1[O]3.[Cl-] [Complex 15] | 0.78
C#CCN(C)c1ccc2c(c1)[O][Ga-3]13([N+]#CC)([N+]#CC)[O]c4cc(N(C)CC#C)ccc4C=[N+]1C(C#N)=C(C#N)[N+]3=C2.[Cl-] [Complex 8] | 0.78
